Data taken from patent publication US6130229A, “Tricyclic compounds having activity as RAS-FPT inhibitors” (Schering Corporation, priority 1997, dated 2000).
For at least one compound, name, drawing or mass did not settle the structure.

Biological target: farnesyl protein transferase
Test: Inhibition of farnesyl protein transferase (test of WO 95/10514)
Format: biochemical
Settings: percent inhibition relative to DMSO vehicle control, IC50 estimated
Source text: The compounds of the invention can be tested by standard methods, for example by those published in published PCT application WO 95/10514 published Apr. 20, 1995 (starting at page 61), the disclosure of which is hereby incorporated herein by reference. Particularly relevant assays and studies include In vitro enzyme assays, Cell-Based Assays, Cell Mat Assays, and In Vivo Anti-Tumor Studies.
Such Assays and Studies indicate that compounds of the Formula I above are selective inhibitors of Ras-FPT and can be used as anti-tumor agents. The following Table presents IC50 values obtained in the test for Inhibition of farnesyl protein transferase, reported in published PCT application WO 95/10514. Percent inhibition was calculated relative to the DMSO vehicle control, and an IC50 value was estimated.

SMILES | IC50
O=C(CSc1ccncc1)N1CCC(=C2c3ccc(Cl)cc3SCc3cccnc32)CC1 [Example 14B, 4-(8-Chloro-5,11-dihydro-[1]benzothiepino[4,3-b]pyridin-11-ylidene)-1-[(4-pyridinylthio)acetyl]piperidine] | 0.62 µM
NC(=O)N1CCC(CC(=O)N2CCN(C3c4ccc(Cl)cc4SCc4cccnc43)CC2)CC1 (centres unmarked) [Example 15A, 4-[2-[4-(8-Chloro-5,11-dihydro-[1]benzothiepino[4,3-b]pyridin-11-yl)-1-piperazinyl]-2-oxoethyl]-1-piperidinecarboxamide] | 1.12 µM
